# PubChem BioAssay AID1224828, NIAID, 2016
# Test: 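Regulators linking TLR4 signalling to p65 nuclear translocation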 (primary screen)
# Cell system: mouse RAW264.7 G9 macrophage reporter cells (GFP-p65, Tnf promoter-mCherry)
# Knock-down reagent: siRNA pool against mouse genes, 100 nM
# Duration: 2 days siRNA transfection, then 40 min LPS before fixation
# Challenge: LPS (Salmonella minnesota R595) at 10 ng/ml
# Measurement: 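Imaged p65 nuclear translocation ratio, normalised to the plate median, converted to robust z-scores and averaged across two replicates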
# Reading the numbers: p65 translocation robust z-score: higher = more nuclear NF-kappaB p65 after LPS than the plate median; nuclear/cytoplasmic p65 ratio: higher = more nuclear NF-kappaB p65
# Rule for the call: 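Called active when z exceeds 3.3 or falls under -1.56 (median of Tlr4 controls), giving activity score of at least 50; no calls for control wells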
# Calls: active = hit (p65 shift raised or lowered); inactive = no clear change
# In all, the deposit lists about 17,000 reagents; below is a random part of them. 762 of them (4.5%) count as active. 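Active calls include both raised and lowered p65 entry, mostly lowered; wells with fewer than 50 cells lack a z-score.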 The raw values are shown without normalisation. The numbers tell different reagents against one gene apart.
The first 2 records, to show the layout:
p65 translocation robust z-score,"nuclear/cytoplasmic p65 ratio, rep 1","nuclear/cytoplasmic p65 ratio, rep 2",low cell count flag,Outcome,gene,reagent
0.7,1.63,1.47,enough cells to score,inactive,Ppid (peptidylprolyl isomerase D (cyclophilin D)),1
-0.26,1.71,1.3,enough cells to score,inactive,Cdk6 (cyclin dependent kinase 6),1

The list itself, from the first entry:
p65 translocation robust z-score,"nuclear/cytoplasmic p65 ratio, rep 1","nuclear/cytoplasmic p65 ratio, rep 2",low cell count flag,Outcome,gene,reagent
0.7,1.63,1.47,enough cells to score,inactive,Ppid (peptidylprolyl isomerase D (cyclophilin D)),1
-0.26,1.71,1.3,enough cells to score,inactive,Cdk6 (cyclin dependent kinase 6),1
-1.37,1.26,1.22,enough cells to score,inactive,"Cdh7 (cadherin 7, type 2)",1
-0.05,1.37,1.42,enough cells to score,inactive,"Lgsn (lengsin, lens protein with glutamine synthetase domain)",1
0.36,1.73,1.43,enough cells to score,inactive,Pkn2 (protein kinase N2),1
-1.43,1.3,1.62,enough cells to score,inactive,Ctsq (cathepsin Q),1
0.67,1.55,1.68,enough cells to score,inactive,Slc16a1,1
,1.32,1.02,fewer than 50 cells per well; well left out of scoring,inactive,Or8b1d (olfactory receptor family 8 subfamily B member 1D),1
0.46,1.5,1.43,enough cells to score,inactive,Mapk4 (mitogen-activated protein kinase 4),1
-1.27,1.18,1.13,enough cells to score,inactive,Sdc3 (syndecan 3),1
1.77,1.9,1.86,enough cells to score,inactive,Odf2 (outer dense fiber of sperm tails 2),1
-0.81,1.29,1.42,enough cells to score,inactive,Mb21d2 (Mab-21 domain containing 2),1
0.07,1.74,1.65,enough cells to score,inactive,Bloc1s4,1
-0.1,1.46,1.38,enough cells to score,inactive,Krt12 (keratin 12),1
0.34,1.66,1.68,enough cells to score,inactive,Arid4a (AT-rich interaction domain 4A),1
,1.24,1.09,fewer than 50 cells per well; well left out of scoring,inactive,Dlc1 (deleted in liver cancer 1),1
0.77,1.41,1.63,enough cells to score,inactive,Dlc1 (deleted in liver cancer 1),2
,1.89,1.47,fewer than 50 cells per well; well left out of scoring,inactive,Dpt (dermatopontin),1
0.83,1.74,1.48,enough cells to score,inactive,Kif6 (kinesin family member 6),1
-1.6,1.34,1.53,enough cells to score,active,Cox6b2 (cytochrome c oxidase subunit 6B2),1
0.82,1.48,1.2,enough cells to score,inactive,Plin1 (perilipin 1),1
1.28,1.37,1.46,enough cells to score,inactive,Ccdc121 (coiled-coil domain containing 121),1
-1.75,1.19,1.19,enough cells to score,active,Cd300c (CD300C molecule),1
-0.32,1.36,1.26,enough cells to score,inactive,Olfr900 (olfactory receptor 900),1
